According to doi:10.1101/2024.11.08.622053:
No constants are given. Whether binding was seen depends on the method and setting. Binding seen in cells or lysates may run through a third protein. A result given as binding can be weak or reduced; the word gives no strength. Tags and fused reporters may be left off the sequences shown.

B1: PgdA tagged with SmBit at its N-terminus (enzyme, UniProt Q8DP63 1-463)
chain: MNKSRLGRGRHGKTRHVLLALIGILAISICLLGGFIAFKIYQQKSFEQKIESLKKEKDDQLSEGNQKEHFRQGQAEVIAYYPLQGEKVISSVRELINQDVKDKLESKDNLVFYYTEQEESGLKGVVNRNVTKQIYDLVAFKIEETEKTSLGKVHLTEDGQPFTLDQLFSDASKAKEQLIKELTSFIEDKKIEQDQSEQIVKNFSDQDLSAWNFDYKDSQIILYPSPVVENLEEIALPVSAFFDVIQSSYLLEKDAALYQSYFDKKHQKVVALTFDDGPNPATTPQVLETLAKYDIKATFFVLGKNVSGNEDLVKRIKSEGHVVGNHSWSHPILSQLSLDEAKKQITDTEDVLTKVLGSSSKLMRPPYGAITDDIRNSLDLSFIMWDVDSLDWKSKNEASILTEIQHQVANGSIVLMHDIHSPTVNALPRVIEYLKNQGYTFVTIPEMLNTRLKAHELYYSRDE
B2: RodZ tagged with SmBit at its N-terminus (protein, UniProt Q8DMX7 1-276)
chain: MTSMRKKTIGEVLRLARINQGLSLDELQKKTEIQLDMLEAMEADDFDQLPSPFYTRSFLKKYAWAVELDDQIVLDAYDSGSMITYEEVDVDEDELTGRRRSSKKKKKKTSFLPLFYFILFALSILIFVTYYVWNYIQTQPEEPSLSNYSVVQSTSSTSSVPHSSSSSSSSIESAISVSGEGNHVEIAYKTSKETVKLQLAVSDVTSWVSVSESELEGGVTLSPKKKSAEATVATKSPVTITLGVVKGVDLTVDNQTVDLSKLTAQTGQITVTFTKN
B3: PBP1a tagged with SmBit at its N-terminus (enzyme, UniProt Q8DR59 1-719)
chain: MNKPTILRLIKYLSISFLSLVIAAIVLGGGVFFYYVSKAPSLSESKLVATTSSKIYDNKNQLIADLGSERRVNAQANDIPTDLVKAIVSIEDHRFFDHRGIDTIRILGAFLRNLQSNSLQGGSALTQQLIKLTYFSTSTSDQTISRKAQEAWLAIQLEQKATKQEILTYYINKVYMSNGNYGMQTAAQNYYGKDLNNLSLPQLALLAGMPQAPNQYDPYSHPEAAQDRRNLVLSEMKNQGYISAEQYEKAVNTPITDGLQSLKSASNYPAYMDNYLKEVINQVEEETGYNLLTTGMDVYTNVDQEAQKHLWDIYNTDEYVAYPDDELQVASTIVDVSNGKVIAQLGARHQSSNVSFGINQAVETNRDWGSTMKPITDYAPALEYGVYESTATIVHDEPYNYPGTNTPVYNWDRGYFGNITLQYALQQSRNVPAVETLNKVGLNRAKTFLNGLGIDYPSIHYSNAISSNTTESDKKYGASSEKMAAAYAAFANGGTYYKPMYIHKVVFSDGSEKEFSNVGTRAMKETTAYMMTDMMKTVLSYGTGRNAYLAWLPQAGKTGTSNYTDEEIENHIKTSQFVAPDELFAGYTRKYSMAVWTGYSNRLTPLVGNGLTVAAKVYRSMMTYLSEGSNPEDWNIPEGLYRNGEFVFKNGARSTWSSPAPQQPPSTESSSSSSDSSTSQSSSTTPSTNNSTTTNPNNNTQQSNTTPDQQNQNPQPAQP
B4: PgdA tagged with SmBit at its C-terminus (enzyme, UniProt Q8DP63 1-463)
chain: B1 chain
B5: RodZ tagged with SmBit at its C-terminus (protein, UniProt Q8DMX7 1-276)
chain: B2 chain
B6: PBP1a tagged with SmBit at its C-terminus (enzyme, UniProt Q8DR59 1-719)
chain: B3 chain

The binders below were run on S protein tagged with LgBit at its N-terminus (S. pneumoniae) (assay: split reporter).

Binder | binding
B1 | binds
B2 | binds
B3 | binds

Each binder was assayed on S protein tagged with LgBit at its C-terminus (S. pneumoniae) (assay: split reporter).

Binder | binding
B4 | binds
B5 | binds
B6 | binds
